The source of these data is PMC9615392.

Amino acid sequences for entries named in this document (tags omitted).
UniProt Q8IY33: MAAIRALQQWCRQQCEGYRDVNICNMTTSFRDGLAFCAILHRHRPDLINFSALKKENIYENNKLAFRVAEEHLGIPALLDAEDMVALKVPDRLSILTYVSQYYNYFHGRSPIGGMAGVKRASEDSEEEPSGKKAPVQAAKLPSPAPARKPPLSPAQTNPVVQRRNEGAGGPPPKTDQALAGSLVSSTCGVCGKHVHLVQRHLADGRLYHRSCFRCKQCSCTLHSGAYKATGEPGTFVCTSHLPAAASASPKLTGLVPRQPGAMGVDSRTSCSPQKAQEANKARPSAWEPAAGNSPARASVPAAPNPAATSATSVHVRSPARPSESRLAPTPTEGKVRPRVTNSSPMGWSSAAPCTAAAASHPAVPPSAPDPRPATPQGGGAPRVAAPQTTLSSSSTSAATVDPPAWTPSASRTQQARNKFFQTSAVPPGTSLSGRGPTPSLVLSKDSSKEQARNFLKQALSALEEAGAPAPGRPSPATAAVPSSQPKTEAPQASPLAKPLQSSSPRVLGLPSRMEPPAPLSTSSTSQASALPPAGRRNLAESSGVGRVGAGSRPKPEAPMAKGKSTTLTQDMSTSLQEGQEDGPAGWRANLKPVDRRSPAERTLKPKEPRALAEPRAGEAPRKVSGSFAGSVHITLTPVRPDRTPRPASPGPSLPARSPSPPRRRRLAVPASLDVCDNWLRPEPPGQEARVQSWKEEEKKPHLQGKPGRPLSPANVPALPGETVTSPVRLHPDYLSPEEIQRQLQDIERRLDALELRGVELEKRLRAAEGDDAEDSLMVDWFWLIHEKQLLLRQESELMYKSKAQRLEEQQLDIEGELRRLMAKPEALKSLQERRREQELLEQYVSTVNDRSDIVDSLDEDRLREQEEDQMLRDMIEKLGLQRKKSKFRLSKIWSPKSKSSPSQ
UniProt P19474: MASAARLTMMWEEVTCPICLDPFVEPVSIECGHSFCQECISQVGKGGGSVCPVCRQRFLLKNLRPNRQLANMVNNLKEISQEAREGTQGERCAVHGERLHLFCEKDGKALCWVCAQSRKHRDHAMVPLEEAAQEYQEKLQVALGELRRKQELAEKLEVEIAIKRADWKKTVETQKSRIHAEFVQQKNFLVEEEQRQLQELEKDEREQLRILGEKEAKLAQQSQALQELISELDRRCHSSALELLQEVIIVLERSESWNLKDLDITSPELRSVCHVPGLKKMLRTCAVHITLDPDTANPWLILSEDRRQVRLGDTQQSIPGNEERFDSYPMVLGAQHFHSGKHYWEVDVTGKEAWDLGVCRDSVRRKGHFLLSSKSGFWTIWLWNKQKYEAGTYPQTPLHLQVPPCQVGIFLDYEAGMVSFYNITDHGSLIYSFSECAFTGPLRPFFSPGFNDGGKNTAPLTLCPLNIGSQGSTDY

Results are given in words; binding and its absence hold for the method and conditions named. Binding seen in cells or lysates may run through a third protein. Here binding means that the protein was enriched with, or labelled near, the bait; the list need not be complete.

The target of the assay is Molecule interacting with CasL-like protein 2 (MICALL2), endogenous (human (endogenous in HCT8)) (UniProt Q8IY33). Description: affinity purification with mass spectrometry; CRC cell protein extracts incubated with MICALL2 antibody and protein A/G agarose beads; IgG as control; bands specific to MICALL2 excised from the silver-stained gel, LC-MS/MS.

Consider “Tripartite motif-containing protein 21 (TRIM21), endogenous (from UniProt P19474 1-475)”, for which the binding result is reported as “binds”.
